± gives the uncertainty stated by the source. Many of these values have a large error.
Assay: self-splicing fitness, log relative to wild type (ln ratio); higher = more splicing; Tetrahymena group I intron in knt gene, E. coli kanamycin selection, DiMSum; sequences stand for … in CUCUCU…GGAGGGAAAAGUUAUCAGGCAUGCACCUGGUAGCUAGUCUUUAAACCAAUAGAUUGCAUCGGUUUAAAAGGCAAGACCGUCAAAUUGCGGGAAAGGGGUCAACAGCCGUUCAGUACCAAGUCUCAGGGGAAACUUUGAGAUGGCCUUGCAAAGGGUAUGGUAAUAAGCUGACGGACAUGGUCCUAACCACGCAGCCAAGUCCUAAGUCAACAGAUCUUCUGUUGAUAUGGAUGCAGUUCACAGACUAAAUGUCGGUCGGGGAAGAUGUAUUCUUCUCAUAAGAUAUAGUCGGACCUCUCCUUAAUGGGAGCUAGCGGAUGAAGUGAUGCAACACUGGAGCCGCUGGGAACUAAUUUGUAUGCGAAAGUAUAUUGAUUAGUUUUGGAGUACUCGUGGUCG
Procedure, shortened: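 Colonies from six replicate transformations of E. coli BL21(DE3) were pooled and amplicon-sequenced on an Illumina HiSeq 2500. The library placed an intron with all eight P1ex-region nucleotides randomised inside the knt kanamycin-resistance gene on pET-22b(+), and cells grew overnight at 37°C or 30°C on LB agar with or without 25 μg/mL kanamycin (plus 100 μg/mL carbenicillin, 50 μM IPTG, 0.2% rhamnose). Fitness is the DiMSum error-weighted combination of wild-type-normalised replicate fold changes, kanamycin versus none.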

Row | Sequence | self-splicing fitness (ln) (30 °C) | self-splicing fitness (ln) (37 °C)
1 | CGGGAGCAAUAUUACGACCG | -2.48 ± 1.1 | 0.299 ± 0.68
2 | GACGAGCAAUAUUACGCUGG | -4.94 ± 0.72 | 
3 | UUCGAGCAAUAUUACGCGCG | -2.73 ± 0.62 | -2.48 ± 0.63
4 | UGAGAGCAAUAUUACGGCUC |  | -3.05 ± 0.52
5 | UCAGAGCAAUAUUACGGACA | -3.88 ± 0.73 | -2.82 ± 0.62
6 | CCGUAGCAAUAUUACGAGCA | -1.93 ± 0.53 | 
7 | AUAUAGCAAUAUUACGUUGU |  | -4.04 ± 0.51
8 | GGGCAGCAAUAUUACGAAUU | -0.318 ± 0.12 | -0.166 ± 0.17
9 | GGGGAGCAAUAUUACGAUGC |  | 0.834 ± 0.65
10 | GUAAAGCAAUAUUACGAAAA | -1.52 ± 0.15 | 0.0796 ± 0.28
11 | CCUGAGCAAUAUUACGUAUU | -2.38 ± 0.16 | -2.98 ± 0.21
12 | GUGUAGCAAUAUUACGCCAA | -3.71 ± 0.75 | 
13 | AUGUAGCAAUAUUACGAAUC | -4.46 ± 0.59 | 
14 | UUUGAGCAAUAUUACGCUGA |  | -1.68 ± 0.53
15 | GACGAGCAAUAUUACGUGAC | -2.77 ± 0.31 | -1.48 ± 0.26
16 | AGAUAGCAAUAUUACGAAGG |  | -3.38 ± 0.74
17 | UUGGAGCAAUAUUACGACGU |  | -0.234 ± 1.4
18 | AGCAAGCAAUAUUACGCUAG | -4.08 ± 0.25 | -2.1 ± 0.22
19 | CAGUAGCAAUAUUACGUUCU | -3.76 ± 0.52 | 
20 | CAGCAGCAAUAUUACGUAUA | -2.42 ± 0.18 | -2.81 ± 0.29

Complete entries from above:
GACGAGCAAUAUUACGCUGG is entered as self-splicing fitness (ln) (30 °C) = -4.94 ± 0.72
UUGGAGCAAUAUUACGACGU is entered as self-splicing fitness (ln) (37 °C) = -0.234 ± 1.4
AGAUAGCAAUAUUACGAAGG is entered as self-splicing fitness (ln) (37 °C) = -3.38 ± 0.74
UCAGAGCAAUAUUACGGACA is entered as self-splicing fitness (ln) (30 °C) = -3.88 ± 0.73; self-splicing fitness (ln) (37 °C) = -2.82 ± 0.62

(further entries)

Row | Sequence | self-splicing fitness (ln) (30 °C) | self-splicing fitness (ln) (37 °C)
21 | AUUGAGCAAUAUUACGGGAC |  | -3.06 ± 0.52
22 | GCUGAGCAAUAUUACGGCUC | -4.1 ± 0.61 | 
23 | GAUAAGCAAUAUUACGCCUC | -3.74 ± 0.53 | 
24 | AUUGAGCAAUAUUACGCUUC | -4.72 ± 1 | 
25 | CGAGAGCAAUAUUACGAGAC |  | -2.71 ± 0.62
26 | CGGAAGCAAUAUUACGGGUG | -0.485 ± 0.09 | 0.544 ± 0.086
27 | UUCUAGCAAUAUUACGAGGG | -4.59 ± 0.51 | 
28 | GACAAGCAAUAUUACGGUGC | -2.77 ± 0.21 | -1.63 ± 0.24
29 | UAGUAGCAAUAUUACGGUCC | -3.42 ± 0.61 | 
30 | CUAGAGCAAUAUUACGCACA |  | -0.44 ± 1.4
31 | GGGUAGCAAUAUUACGGACC | -0.423 ± 0.91 | -1.23 ± 0.57
32 | UGGGAGCAAUAUUACGCCUC |  | -2.99 ± 1
33 | AUACAGCAAUAUUACGCGGC |  | -2.69 ± 0.61
34 | UCCGAGCAAUAUUACGCGCU |  | -1.79 ± 1.2
35 | CGAGAGCAAUAUUACGUUGC | -3.19 ± 0.82 | -2.5 ± 0.76
36 | CUGUAGCAAUAUUACGGCCA | -2.13 ± 0.63 | -2 ± 0.66
37 | GAUGAGCAAUAUUACGAACG | -0.828 ± 0.82 | -0.683 ± 0.72
38 | CCCUAGCAAUAUUACGCACC | -3.32 ± 0.76 | 
39 | GGAGAGCAAUAUUACGUAGC | -3.63 ± 1 | 
40 | UUCUAGCAAUAUUACGGCAG | 0.185 ± 0.42 | -0.821 ± 0.39

Row | Sequence | self-splicing fitness (ln) (30 °C) | self-splicing fitness (ln) (37 °C)
41 | GGAGAGCAAUAUUACGCUUC | -0.483 ± 0.67 | 
42 | CCUGAGCAAUAUUACGGUCU | -5.01 ± 0.51 | 
43 | ACAGAGCAAUAUUACGCAGU | -4.31 ± 0.72 | 
44 | UAUGAGCAAUAUUACGAAAG |  | -2.43 ± 1.1
45 | AGCCAGCAAUAUUACGAGCA | -0.932 ± 0.11 | 0.49 ± 0.14
46 | GGCGAGCAAUAUUACGCCUG |  | -2.67 ± 0.75
47 | GGCGAGCAAUAUUACGAAAA | -3.23 ± 1 | 
48 | CCGGAGCAAUAUUACGCCGA |  | -3.41 ± 0.6
49 | UAUAAGCAAUAUUACGAUAU | -2.9 ± 0.21 | -1.96 ± 0.2
50 | CGUCAGCAAUAUUACGAUCG | -1.74 ± 0.093 | -1.61 ± 0.11
51 | GUGAAGCAAUAUUACGCAUC | -2.02 ± 0.87 | 
52 | CUUUAGCAAUAUUACGUUGA | -5.24 ± 1 | 
53 | GGUAAGCAAUAUUACGGUAA | -1.6 ± 0.17 | -0.53 ± 0.14
54 | AGAGAGCAAUAUUACGGACA | -2.38 ± 0.76 | 
55 | UCACAGCAAUAUUACGACUU | -3.28 ± 0.2 | -1.65 ± 0.12
56 | CAUAAGCAAUAUUACGUACU | -4.6 ± 0.59 | 
57 | GAAGAGCAAUAUUACGCUGG |  | -1.38 ± 0.58
58 | CAUGAGCAAUAUUACGCGAC | -3.71 ± 0.52 | 
59 | GGAUAGCAAUAUUACGCUGC |  | -1.88 ± 1.2

— the supplement of paper PMC7877785
